Reference: PubChem BioAssay AID1224828 (NIAID, 2016)

Screen: 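Knock-downs that increase or decrease LPS-induced p65 nuclear translocation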 (primary screen)
Cells: mouse RAW264.7 G9 macrophage reporter cells (GFP-p65, Tnf promoter-mCherry)
Reagents: siRNA pool against mouse genes, 100 nM
Duration: 2 days siRNA transfection, then 40 min LPS before fixation
Conditions: LPS (Salmonella minnesota R595) at 10 ng/ml
Read-out: 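Microscopy ratio of nuclear to perinuclear-ring GFP-p65 signal, scaled to the plate median; gene score is the average of two replicate robust z-scores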
Direction: p65 translocation robust z-score: higher = more nuclear NF-kappaB p65 after LPS than the plate median; nuclear/cytoplasmic p65 ratio: higher = more nuclear NF-kappaB p65
Rule for the call: 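Called active when z exceeds 3.3 or falls under -1.56 (median of Tlr4 controls), giving activity score of at least 50; no calls for control wells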
Meaning of the calls: active = hit (p65 shift raised or lowered); inactive = no clear change
This is a random part of about 17,000 reagents tested. Over the whole deposit, 762 (4.5%) are marked active. 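Active calls include both raised and lowered p65 entry, mostly lowered; wells with fewer than 50 cells lack a z-score.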 The raw values are shown without normalisation. Entries without a mark were called inactive. A reagent listed more than once was tested more than once; the source does not tell the runs apart. No sequences are given here.

target gene | p65 translocation robust z-score | nuclear/cytoplasmic p65 ratio, rep 1 | nuclear/cytoplasmic p65 ratio, rep 2 | low cell count flag
Pnma1 | 0.64 | 1.48 | 1.59 | enough cells to score
Rdx | -0.08 | 1.49 | 1.52 | enough cells to score
Ly6g6c | -1.16 | 1.48 | 1.42 | enough cells to score
Zfp879 | 0.14 | 1.49 | 1.51 | enough cells to score
Tmprss11f | 1.07 | 1.35 | 1.44 | enough cells to score
Ftcd | -0.06 | 1.61 | 1.43 | enough cells to score
Pnkd | -1.16 | 1.43 | 1.45 | enough cells to score
Fblim1 | -0.46 | 1.45 | 1.4 | enough cells to score
Higd1b | – | 1.16 | 1.24 | fewer than 50 cells per well; well left out of scoring
Vgll1 | 1.31 | 1.45 | 1.37 | enough cells to score
Teddm2 | -0.64 | 1.38 | 1.61 | enough cells to score
Mansc4 | 0.49 | 1.45 | 1.6 | enough cells to score
Galnt13 | -0.07 | 1.57 | 1.36 | enough cells to score
Pkib | -0.1 | 1.54 | 1.36 | enough cells to score
Zfp661 | 0.08 | – | 1.47 | enough cells to score
Wwp2 | -0.86 | 1.48 | 1.49 | enough cells to score
Vps18 | -0.72 | 1.31 | 1.15 | enough cells to score
Vegfb | -0.35 | 1.45 | 1.46 | enough cells to score
Foxn2 | -0.75 | 1.29 | 1.31 | enough cells to score
9530002B09Rik | -0.48 | 1.39 | 1.45 | enough cells to score
Rpl15 | – | 1.76 | 1.33 | fewer than 50 cells per well; well left out of scoring
Cdt1 | -0.45 | 1.44 | 1.17 | enough cells to score
Ip6k3 | -0.99 | 1.56 | 1.24 | enough cells to score
S1pr1 | -1.83 (active) | 1.25 | 1.31 | enough cells to score
Hoxa2 | 1.88 | 1.63 | 1.67 | enough cells to score
Atp5mj | – | 1.3 | 0.983 | fewer than 50 cells per well; well left out of scoring

Individual results from the list.
For “nuclear/cytoplasmic p65 ratio, rep 2”, Pnkd is entered as 1.45
Value for Higd1b under “low cell count flag”: fewer than 50 cells per well; well left out of scoring
Vegfb, nuclear/cytoplasmic p65 ratio, rep 2: 1.46

The results go on.
target gene | p65 translocation robust z-score | nuclear/cytoplasmic p65 ratio, rep 1 | nuclear/cytoplasmic p65 ratio, rep 2 | low cell count flag
Gtf3a | 1.13 | 1.9 | 1.63 | enough cells to score
1700010D01Rik | -1.08 | 1.3 | 1.23 | enough cells to score
Dnaaf10 | 0.87 | 1.46 | 1.84 | enough cells to score
Ralbp1 | -0.2 | 1.63 | 1.35 | enough cells to score
Rbfox1 | -0.39 | 1.21 | 1.47 | enough cells to score
Klf6 | 1.58 | 1.73 | 1.55 | enough cells to score
Zfa-ps | 0.42 | 1.55 | 1.58 | enough cells to score
Dnajb1 | 1.95 | 1.75 | 1.59 | enough cells to score
Atp7b | 0.15 | 1.67 | 1.6 | enough cells to score
Cripto | 0.62 | 1.69 | 1.52 | enough cells to score
Rnf14 | 0.25 | 1.51 | 1.6 | enough cells to score
Arl16 | -1.62 (active) | 1.18 | 1.26 | enough cells to score
Dnph1 | 0.68 | 1.63 | 1.56 | enough cells to score
Ybx3 | 0.9 | 1.61 | 1.47 | enough cells to score
Ap1s3 | 0.68 | 1.64 | 1.86 | enough cells to score
Nolc1 | -0.84 | 1.59 | 1.41 | enough cells to score
Or1m1 | -0.65 | 1.53 | 1.32 | enough cells to score
Siva1 | -0.27 | 1.53 | 1.5 | enough cells to score
Cmpk2 | 0.4 | 1.4 | 1.31 | enough cells to score
Spag4 | -0.67 | 1.31 | 1.15 | enough cells to score
Dennd2a | 0.18 | 1.63 | 1.85 | enough cells to score
Clec4f | -0.6 | 1.51 | 1.68 | enough cells to score
Cd59b | -1.42 | 1.05 | 1.2 | enough cells to score
Cbx6 | -0.67 | 1.45 | 1.72 | enough cells to score
Cbx6 | -0.12 | 1.39 | 1.44 | enough cells to score
Ap2m1 | -0.47 | 1.47 | 1.68 | enough cells to score
Or4g17 | 3.07 | 1.89 | 1.98 | enough cells to score
Rinl | -0.24 | 1.35 | 1.41 | enough cells to score
Mmaa | -0.68 | 1.39 | 1.22 | enough cells to score
Gpr157 | – | 1.43 | 1.33 | fewer than 50 cells per well; well left out of scoring
Pgap1 | 0.6 | 1.67 | 1.62 | enough cells to score
Rag1 | 0.1 | 1.61 | 1.46 | enough cells to score
Tm2d3 | 0.26 | 1.51 | 1.55 | enough cells to score
